Laboratory results published in article PMC5605669.
These are yes or no findings as the source states them, for the method shown. Some entries that bind do so weakly or less than the wild type.

Amino acid sequences for entries named in this document (tags omitted). A change or cut given only in a name is not applied to a line headed by its entry.
UniProt Q9HC16: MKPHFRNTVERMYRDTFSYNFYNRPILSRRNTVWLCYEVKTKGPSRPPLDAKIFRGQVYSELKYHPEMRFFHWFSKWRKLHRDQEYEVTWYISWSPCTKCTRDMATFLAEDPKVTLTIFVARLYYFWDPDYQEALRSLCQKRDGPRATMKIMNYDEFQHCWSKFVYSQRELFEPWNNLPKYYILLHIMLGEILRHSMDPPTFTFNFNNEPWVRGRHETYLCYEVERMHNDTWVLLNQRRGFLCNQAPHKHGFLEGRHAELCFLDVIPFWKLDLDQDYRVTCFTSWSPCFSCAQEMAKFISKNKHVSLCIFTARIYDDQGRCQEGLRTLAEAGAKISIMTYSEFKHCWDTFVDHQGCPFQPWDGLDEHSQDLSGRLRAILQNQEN

Biological target: APOBEC3G F126A-W127A (NTD mutant) (human) (UniProt Q9HC16)
Assay: AFM imaging; 70 nM A3G incubated 10 min with linearized m13 ssDNA in 10 mM Tris, 2.5 mM NaCl; deposited on APTES coated mica, imaged in liquid; monomers per cluster on ssDNA from cluster volume; both purified

binding: binds weakly
Substance: APOBEC3G F126A-W127A (NTD mutant) (from UniProt Q9HC16 1-384) (enzyme)
